Test results: the supplement of paper PMC10849652
The list shows a part of the results. Residues, ends and D or L forms follow the SMILES beside them. *: point of attachment. Cbz = O=C(OCc1ccccc1)*

Protein sequences, listed by entry. Tags and fused reporters are not part of them. Lines headed by an entry give the natural chain unless they say otherwise; changes in a name come on top.
UniProt Q13217: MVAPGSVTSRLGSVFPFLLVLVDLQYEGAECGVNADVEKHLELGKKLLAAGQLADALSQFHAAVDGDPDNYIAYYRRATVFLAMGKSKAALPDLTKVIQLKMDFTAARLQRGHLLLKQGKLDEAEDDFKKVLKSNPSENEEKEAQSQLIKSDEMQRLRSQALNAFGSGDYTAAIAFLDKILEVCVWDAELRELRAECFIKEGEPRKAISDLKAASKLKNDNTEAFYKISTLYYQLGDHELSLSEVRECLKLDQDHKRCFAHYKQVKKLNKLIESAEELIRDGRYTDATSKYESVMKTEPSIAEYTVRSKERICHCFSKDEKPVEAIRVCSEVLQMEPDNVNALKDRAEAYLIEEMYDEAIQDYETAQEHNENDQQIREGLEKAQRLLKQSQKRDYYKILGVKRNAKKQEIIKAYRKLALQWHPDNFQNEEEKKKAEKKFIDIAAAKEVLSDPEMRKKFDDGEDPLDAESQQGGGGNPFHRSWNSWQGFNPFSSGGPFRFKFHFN
UniProt Q96EY1: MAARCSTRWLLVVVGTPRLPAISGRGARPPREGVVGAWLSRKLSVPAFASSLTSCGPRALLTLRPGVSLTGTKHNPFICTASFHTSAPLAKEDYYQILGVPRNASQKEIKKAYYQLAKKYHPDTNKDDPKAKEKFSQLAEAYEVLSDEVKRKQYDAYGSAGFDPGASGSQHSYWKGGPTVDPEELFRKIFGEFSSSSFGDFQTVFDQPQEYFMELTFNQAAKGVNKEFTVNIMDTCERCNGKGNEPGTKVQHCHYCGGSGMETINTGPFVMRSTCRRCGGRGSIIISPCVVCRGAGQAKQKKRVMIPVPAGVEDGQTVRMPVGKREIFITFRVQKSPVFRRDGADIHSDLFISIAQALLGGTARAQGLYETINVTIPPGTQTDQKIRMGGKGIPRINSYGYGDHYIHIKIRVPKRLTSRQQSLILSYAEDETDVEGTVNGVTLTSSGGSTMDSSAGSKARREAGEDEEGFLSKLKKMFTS
UniProt Q9UDY4: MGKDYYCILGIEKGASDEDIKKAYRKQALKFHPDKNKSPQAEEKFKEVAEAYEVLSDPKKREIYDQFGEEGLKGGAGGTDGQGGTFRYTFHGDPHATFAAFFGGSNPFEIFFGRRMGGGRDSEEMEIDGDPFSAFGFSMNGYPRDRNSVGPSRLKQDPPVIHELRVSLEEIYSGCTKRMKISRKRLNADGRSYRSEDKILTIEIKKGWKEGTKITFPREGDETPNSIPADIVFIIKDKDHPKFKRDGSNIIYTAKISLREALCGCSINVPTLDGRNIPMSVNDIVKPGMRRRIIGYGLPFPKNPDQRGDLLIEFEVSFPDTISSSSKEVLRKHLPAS
UniProt Q9UNI6, whole entry, looked up: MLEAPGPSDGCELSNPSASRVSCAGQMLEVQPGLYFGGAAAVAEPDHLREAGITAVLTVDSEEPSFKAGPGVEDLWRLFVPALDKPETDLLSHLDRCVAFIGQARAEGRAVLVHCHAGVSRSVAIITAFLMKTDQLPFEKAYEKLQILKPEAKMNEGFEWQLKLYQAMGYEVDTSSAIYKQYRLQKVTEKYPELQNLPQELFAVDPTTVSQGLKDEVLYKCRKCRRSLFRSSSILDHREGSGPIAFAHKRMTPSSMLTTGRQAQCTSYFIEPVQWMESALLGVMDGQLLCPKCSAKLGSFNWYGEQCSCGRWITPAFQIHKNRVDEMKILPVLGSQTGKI
UniProt Q7L8W6: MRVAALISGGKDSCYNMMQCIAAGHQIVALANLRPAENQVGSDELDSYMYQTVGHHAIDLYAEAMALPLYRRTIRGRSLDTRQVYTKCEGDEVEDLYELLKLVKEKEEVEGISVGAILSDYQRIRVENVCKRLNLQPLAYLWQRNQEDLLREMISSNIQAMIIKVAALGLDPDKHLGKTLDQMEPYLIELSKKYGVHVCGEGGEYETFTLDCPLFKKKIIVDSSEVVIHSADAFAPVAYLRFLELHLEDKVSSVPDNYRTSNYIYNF
UniProt Q8WWZ3: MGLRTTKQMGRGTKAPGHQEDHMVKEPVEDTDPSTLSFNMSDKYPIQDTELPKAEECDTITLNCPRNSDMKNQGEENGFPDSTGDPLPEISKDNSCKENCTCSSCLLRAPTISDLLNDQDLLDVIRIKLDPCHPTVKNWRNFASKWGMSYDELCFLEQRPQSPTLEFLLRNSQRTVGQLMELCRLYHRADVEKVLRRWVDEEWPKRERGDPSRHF
UniProt Q9NTX5: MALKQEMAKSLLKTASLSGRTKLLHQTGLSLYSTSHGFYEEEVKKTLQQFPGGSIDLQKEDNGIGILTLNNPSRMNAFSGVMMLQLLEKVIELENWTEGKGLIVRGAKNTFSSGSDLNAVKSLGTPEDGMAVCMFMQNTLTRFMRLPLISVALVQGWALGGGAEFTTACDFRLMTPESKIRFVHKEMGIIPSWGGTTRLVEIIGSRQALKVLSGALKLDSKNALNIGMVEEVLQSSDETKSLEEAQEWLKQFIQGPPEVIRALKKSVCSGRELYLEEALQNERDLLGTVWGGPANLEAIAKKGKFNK
UniProt Q9Y295: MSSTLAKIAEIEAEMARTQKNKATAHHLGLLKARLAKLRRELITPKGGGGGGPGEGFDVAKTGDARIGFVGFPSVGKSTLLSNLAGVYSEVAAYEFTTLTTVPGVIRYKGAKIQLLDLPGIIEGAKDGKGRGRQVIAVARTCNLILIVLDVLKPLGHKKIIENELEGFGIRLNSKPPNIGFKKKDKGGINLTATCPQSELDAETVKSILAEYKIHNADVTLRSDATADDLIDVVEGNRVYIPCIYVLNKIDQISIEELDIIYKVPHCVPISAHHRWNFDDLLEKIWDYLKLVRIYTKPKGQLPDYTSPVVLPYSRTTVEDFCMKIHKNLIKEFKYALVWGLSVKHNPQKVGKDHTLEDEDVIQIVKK
UniProt P55039: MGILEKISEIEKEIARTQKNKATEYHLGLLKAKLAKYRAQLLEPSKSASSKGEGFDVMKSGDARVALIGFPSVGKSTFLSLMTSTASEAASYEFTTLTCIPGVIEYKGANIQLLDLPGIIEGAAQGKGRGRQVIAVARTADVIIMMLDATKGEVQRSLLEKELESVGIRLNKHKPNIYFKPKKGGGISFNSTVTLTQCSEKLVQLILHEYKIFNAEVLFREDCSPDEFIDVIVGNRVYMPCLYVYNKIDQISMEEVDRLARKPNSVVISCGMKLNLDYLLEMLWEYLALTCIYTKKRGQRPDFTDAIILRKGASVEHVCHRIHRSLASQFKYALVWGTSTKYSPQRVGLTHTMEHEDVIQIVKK
UniProt Q9P2X0: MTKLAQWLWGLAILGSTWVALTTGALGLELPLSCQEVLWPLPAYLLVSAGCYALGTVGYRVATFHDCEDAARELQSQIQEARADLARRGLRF
UniProt Q9BTV6: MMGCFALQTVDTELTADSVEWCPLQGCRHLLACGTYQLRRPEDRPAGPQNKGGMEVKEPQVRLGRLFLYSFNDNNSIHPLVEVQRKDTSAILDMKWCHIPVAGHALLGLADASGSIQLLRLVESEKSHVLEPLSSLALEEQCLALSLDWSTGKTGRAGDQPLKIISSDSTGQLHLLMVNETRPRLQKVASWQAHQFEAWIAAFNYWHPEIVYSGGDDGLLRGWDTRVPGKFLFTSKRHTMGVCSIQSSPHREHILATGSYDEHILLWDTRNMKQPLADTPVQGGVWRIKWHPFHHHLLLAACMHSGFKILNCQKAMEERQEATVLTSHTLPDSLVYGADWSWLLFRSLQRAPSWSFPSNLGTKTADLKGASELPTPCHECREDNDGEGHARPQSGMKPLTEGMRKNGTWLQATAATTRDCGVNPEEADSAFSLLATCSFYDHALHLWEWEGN
UniProt Q02487, whole entry, looked up: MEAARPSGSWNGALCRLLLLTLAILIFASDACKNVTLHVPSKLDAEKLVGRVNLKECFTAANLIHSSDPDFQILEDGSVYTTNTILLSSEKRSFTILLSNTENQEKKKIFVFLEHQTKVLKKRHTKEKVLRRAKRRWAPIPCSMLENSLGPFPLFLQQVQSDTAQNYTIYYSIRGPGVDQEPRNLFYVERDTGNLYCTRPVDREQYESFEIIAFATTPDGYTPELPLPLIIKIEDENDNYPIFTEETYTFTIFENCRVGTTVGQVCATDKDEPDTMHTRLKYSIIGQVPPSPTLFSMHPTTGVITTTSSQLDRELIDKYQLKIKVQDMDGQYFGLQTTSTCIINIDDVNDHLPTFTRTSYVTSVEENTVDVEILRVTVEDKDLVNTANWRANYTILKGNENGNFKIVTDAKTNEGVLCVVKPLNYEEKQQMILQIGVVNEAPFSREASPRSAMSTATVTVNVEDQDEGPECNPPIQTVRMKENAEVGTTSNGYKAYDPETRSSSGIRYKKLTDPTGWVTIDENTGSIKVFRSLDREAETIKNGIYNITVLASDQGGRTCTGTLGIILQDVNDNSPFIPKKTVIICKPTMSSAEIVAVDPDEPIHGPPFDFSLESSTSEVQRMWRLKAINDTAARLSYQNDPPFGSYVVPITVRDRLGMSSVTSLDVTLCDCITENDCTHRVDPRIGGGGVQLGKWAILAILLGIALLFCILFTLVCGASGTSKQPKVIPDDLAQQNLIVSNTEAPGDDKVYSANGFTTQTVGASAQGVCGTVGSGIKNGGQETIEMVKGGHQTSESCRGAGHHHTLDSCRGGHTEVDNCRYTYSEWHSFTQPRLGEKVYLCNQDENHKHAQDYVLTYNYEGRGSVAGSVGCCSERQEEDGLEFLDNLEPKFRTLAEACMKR
UniProt Q01658: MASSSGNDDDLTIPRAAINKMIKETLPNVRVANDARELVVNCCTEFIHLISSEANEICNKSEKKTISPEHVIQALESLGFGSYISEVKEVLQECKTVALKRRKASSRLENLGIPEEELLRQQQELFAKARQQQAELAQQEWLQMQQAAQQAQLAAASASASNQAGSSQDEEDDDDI
UniProt P30084: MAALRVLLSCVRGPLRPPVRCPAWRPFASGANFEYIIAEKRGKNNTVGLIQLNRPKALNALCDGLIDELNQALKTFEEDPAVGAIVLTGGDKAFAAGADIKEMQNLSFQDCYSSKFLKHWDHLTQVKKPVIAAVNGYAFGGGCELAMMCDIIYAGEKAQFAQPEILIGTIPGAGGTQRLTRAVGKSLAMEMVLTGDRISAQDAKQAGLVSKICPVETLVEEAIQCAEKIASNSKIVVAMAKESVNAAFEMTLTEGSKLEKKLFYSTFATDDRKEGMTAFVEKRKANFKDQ
UniProt Q14126: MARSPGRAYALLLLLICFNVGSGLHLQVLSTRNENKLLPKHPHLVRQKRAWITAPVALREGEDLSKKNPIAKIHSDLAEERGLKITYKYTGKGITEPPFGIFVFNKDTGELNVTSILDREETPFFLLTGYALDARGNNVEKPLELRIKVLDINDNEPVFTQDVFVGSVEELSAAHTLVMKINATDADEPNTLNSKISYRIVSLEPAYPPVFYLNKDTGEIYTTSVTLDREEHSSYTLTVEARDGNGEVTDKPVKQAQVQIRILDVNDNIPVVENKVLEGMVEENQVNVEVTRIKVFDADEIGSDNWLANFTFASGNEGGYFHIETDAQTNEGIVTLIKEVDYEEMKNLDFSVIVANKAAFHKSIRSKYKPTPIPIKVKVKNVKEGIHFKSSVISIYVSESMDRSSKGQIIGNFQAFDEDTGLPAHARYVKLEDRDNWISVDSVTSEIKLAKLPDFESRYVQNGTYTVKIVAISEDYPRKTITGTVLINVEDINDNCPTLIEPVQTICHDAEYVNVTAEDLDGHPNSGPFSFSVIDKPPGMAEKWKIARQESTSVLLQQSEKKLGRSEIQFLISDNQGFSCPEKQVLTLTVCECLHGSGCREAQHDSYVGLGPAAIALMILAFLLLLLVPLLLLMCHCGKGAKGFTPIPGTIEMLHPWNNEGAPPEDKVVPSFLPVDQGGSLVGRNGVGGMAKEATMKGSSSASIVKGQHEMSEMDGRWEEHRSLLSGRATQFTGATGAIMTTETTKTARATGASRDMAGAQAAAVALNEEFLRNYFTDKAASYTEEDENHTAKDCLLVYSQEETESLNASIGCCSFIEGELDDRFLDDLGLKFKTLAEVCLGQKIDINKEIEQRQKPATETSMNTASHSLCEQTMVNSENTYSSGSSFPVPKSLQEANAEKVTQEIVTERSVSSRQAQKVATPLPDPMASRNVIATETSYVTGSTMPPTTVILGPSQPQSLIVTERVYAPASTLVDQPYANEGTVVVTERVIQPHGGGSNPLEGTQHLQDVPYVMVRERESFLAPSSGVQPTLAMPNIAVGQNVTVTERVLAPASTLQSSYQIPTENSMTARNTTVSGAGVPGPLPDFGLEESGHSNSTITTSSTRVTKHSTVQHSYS

Tests used:
Experiment in all cases: log2 fold change, soluble protein after heating vs DMSO (PISA); higher = thermal stabilisation; K562 cells, 10 uM, 30 min; active = over 0.2 and 3.5 SD of the protein, either way, in both replicates (recomputed)
[1] = compound: C1COCCN1CCN2C3=CC=CC=C3N=C2NC(=O)C4=CC(=CC=C4)[N+](=O)[O-] [IRAK-1-4 Inhibitor I]
Summary of the method: (§1)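 Quantification of soluble protein used TMTpro 16plex LC-MS/MS, with channel sums equalised. Samples were the supernatant after 21,000xg for 90 min of pooled aliquots from K562 cells (2×10^6 cells/mL) treated with 10 μM compound for 30 min, heated for 3 min over 48°C-58°C, and extracted in PBS with 0.5% NP-40 at 4°C. Values, from duplicates, describe thermal stability against control samples on a log2 fold-change scale.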

[2] = compound: C=CC(=O)N1CCC[C@@H](n2nc(-c3ccc(Oc4ccccc4)cc3)c3c(N)ncnc32)C1 [ibrutinib]
Summary of the method: as §1

[3] = compound: CC(=O)c1cnc2ccc(-c3cc(Cl)c(O)c(Cl)c3)nc2c1N[C@H]1CC[C@H](CN(C)C)CC1
Summary of the method: as §1

[4] = compound: CC(C)(C)Cn1c(N)nc2ccc(-c3[nH]c(C(C)(C)C)nc3-c3ccc(F)cc3)nc21 [ralimetinib]
Summary of the method: as §1

[5] = compound: CC(C)(O)CC(=O)NCCn1ccc2ncnc(Nc3ccc(Oc4cccc(C(F)(F)F)c4)c(Cl)c3)c21
Summary of the method: as §1

[6] = compound: CC(C)C1=C2N=C(C=C(N2N=C1)NCC3=CC=CC=C3)NCCCCCCN
Summary of the method: as §1

[7] = compound: CC(C)C[C@@H](C=O)NC(=O)[C@H](CC(C)C)NC(=O)[C@H](CC(C)C)NC(=O)OCc1ccccc1
Summary of the method: as §1

[8] = compound: CC(C)N(C[C@H]1O[C@@H](n2cnc3c(N)ncnc32)[C@H](O)[C@@H]1O)[C@H]1C[C@@H](CCc2nc3cc(C(C)(C)C)ccc3[nH]2)C1 [pinometostat]
Summary of the method: as §1

[9] = compound: CC1=C(C(CC(=O)N1)C2=CC=C(C=C2)C(F)(F)F)C(=O)NC3=C(C=C4C(=C3)C=NN4)F
Summary of the method: as §1

[10] = compound: CC1=C(C2=C(C=C1)C(=O)C3=CC=CC=C3N2CCCN)C
Summary of the method: as §1

[11] = compound: CC1=C(C=C(C=C1)NC(=O)C2=CC(=CC=C2)C(C)(C)C#N)NC3=CC4=C(C=C3)N=CN(C4=O)C
Summary of the method: as §1

[12] = compound: CC1=C(C=C(C=C1)NC(=O)C2=CC(=CC=C2)N(C)C)NC(=O)C3=CC=C(C=C3)O
Summary of the method: as §1

[13] = compound: CC1=CC=C(C=C1)SC2=C3C=C(SC3=CN=C2)C(=O)N
Summary of the method: as §1

[14] = compound: CC1=NC(=CC=C1)C2=C(N=C(N2)C(C)(C)C)C3=CC4=NC=CN=C4C=C3
Summary of the method: as §1

[15] = compound: CCCCN(Cc1ccc(C(=O)NO)cc1)C(=O)Nc1ccccc1 [Nexturastat A]
Summary of the method: as §1

[16] = compound: CCCS(=O)(=O)Nc1ccc(F)c(C(=O)c2c[nH]c3ncc(-c4ccc(Cl)cc4)cc23)c1F [vemurafenib]
Summary of the method: as §1

[17] = compound: CCCS(=O)(=O)Nc1ccc(F)c(C(=O)c2c[nH]c3ncc(Cl)cc23)c1F
Summary of the method: as §1

[18] = compound: CCCc1cc(C)[nH]c(=O)c1CNC(=O)c1cc(-c2ccnc(N3CCN(C)CC3)c2)cc2c1cnn2C(C)C
Summary of the method: as §1

[19] = compound: CCN(CC)Cc1ccc2cc(COC(=O)Nc3ccc(C(=O)NO)cc3)ccc2c1 [givinostat]
Summary of the method: as §1

[20] = compound: CCN(CCCOc1ccc2c(Nc3cc(CC(=O)Nc4cccc(F)c4)[nH]n3)ncnc2c1)CCOP(=O)(O)O [barasertib]
Summary of the method: as §1

Measured: log2 fold change

DNAJC3 (UniProt Q13217)
inactive: [1] -0.012 | [2] -0.044 | [3] 0.053 | [4] 0.029 | [5] 0.022 | [6] -0.011 | [7] -0.003 | [8] 0.066 | [9] 0.025 | [10] -0.058 | [11] -0.039 | [12] -0.01 | [13] -0.018 | [14] -0.005 | [15] 0.04 | [16] -0.067 | [17] -0.02 | [18] 0.017 | [19] -0.005 | [20] -0.009

DNAJA3 (UniProt Q96EY1)
inactive: [1] -0.02 | [2] 0.093 | [3] 0 | [4] -0.063 | [5] -0.017 | [6] -0.014 | [7] 0.082 | [8] 0.089 | [9] -0.014 | [10] 0.064 | [11] 0.001 | [12] 0.054 | [13] 0.009 | [14] -0.018 | [15] 0.205 | [16] -0.012 | [17] 0.075 | [18] 0.026 | [19] -0.055 | [20] -0.07

DNAJB4 (UniProt Q9UDY4)
inactive: [1] 0.003 | [2] 0.028 | [3] -0.102 | [4] 0.043 | [5] -0.009 | [6] -0.029 | [7] 0.033 | [8] 0.011 | [9] -0.024 | [10] 0.027 | [11] -0.004 | [12] -0.034 | [13] 0.018 | [14] 0.005 | [15] 0.018 | [16] 0.058 | [17] 0.064 | [18] 0.09 | [19] 0.071 | [20] 0.03

DUSP12 (UniProt Q9UNI6)
inactive: [1] -0.049 | [2] -0.065 | [3] 0.006 | [4] -0.007 | [5] -0.01 | [6] -0.157 | [7] -0.023 | [8] -0.032 | [9] -0.067 | [10] -0.056 | [11] 0.045 | [12] -0.049 | [13] 0.01 | [14] 0.066 | [15] -0.012 | [16] 0.037 | [17] 0.036 | [18] -0.017 | [19] 0.006 | [20] 0.008

DPH6 (UniProt Q7L8W6)
inactive: [1] 0.034 | [2] -0.108 | [3] -0.013 | [4] 0.019 | [5] -0.086 | [6] -0.161 | [7] -0.038 | [8] 0.008 | [9] -0.041 | [10] -0.088 | [11] 0.012 | [12] 0.003 | [13] 0.001 | [14] 0.039 | [15] -0.031 | [16] 0.094 | [17] 0.037 | [18] 0.055 | [19] 0.006 | [20] 0.044

EDARADD (UniProt Q8WWZ3)
inactive: [1] 0.024 | [2] 0.046 | [3] -0.163 | [4] -0.089 | [5] -0.016 | [6] -0.028 | [7] -0.061 | [8] 0 | [9] 0 | [10] 0.023 | [11] -0.023 | [12] 0.015 | [13] 0.009 | [14] 0.005 | [15] 0.057 | [16] 0.035 | [17] -0.094 | [18] -0.083 | [19] -0.037 | [20] 0.039

ECHDC1 (UniProt Q9NTX5)
inactive: [1] 0.043 | [2] -0.01 | [3] -0.018 | [4] -0.053 | [5] 0.007 | [6] 0.071 | [7] 0 | [8] -0.025 | [9] -0.005 | [10] 0.005 | [11] -0.007 | [12] -0.006 | [13] -0.022 | [14] -0.022 | [15] -0.121 | [16] -0.021 | [17] -0.02 | [18] -0.025 | [19] -0.017 | [20] 0.001

DRG1 (UniProt Q9Y295)
inactive: [1] -0.031 | [2] 0.017 | [3] 0.034 | [4] 0.041 | [5] 0.022 | [6] 0.071 | [7] 0.061 | [8] 0.086 | [9] -0.017 | [10] 0.192 | [11] 0.033 | [12] -0.02 | [13] -0.043 | [14] -0.023 | [15] 0.05 | [16] -0.027 | [17] -0.02 | [18] 0.015 | [19] -0.029 | [20] -0.042

DRG2 (UniProt P55039)
inactive: [1] 0.02 | [2] -0.014 | [3] -0.013 | [4] -0.013 | [5] -0.037 | [6] 0.006 | [7] 0.011 | [8] -0.044 | [9] -0.034 | [10] 0.045 | [11] 0.001 | [12] 0 | [13] 0.027 | [14] 0.039 | [15] 0.004 | [16] 0.014 | [17] 0.048 | [18] -0.054 | [19] -0.041 | [20] 0.033

DPM3 isoform 2 (UniProt Q9P2X0)
inactive: [1] 0.014 | [2] -0.035 | [3] -0.055 | [4] 0.022 | [5] -0.06 | [6] -0.013 | [7] -0.084 | [8] 0.021 | [9] 0.048 | [10] 0.138 | [11] 0.05 | [12] -0.011 | [13] -0.151 | [14] 0.089 | [15] -0.065 | [16] -0.13 | [17] -0.065 | [18] 0.003 | [19] -0.054 | [20] 0.118

Random excerpt: 2 entries already listed.
DRG1 (UniProt Q9Y295)
inactive: [1] -0.031 | [2] 0.017 | [3] 0.034 | [4] 0.041 | [5] 0.022 | [6] 0.071 | [7] 0.061 | [8] 0.086 | [9] -0.017 | [10] 0.192 | [11] 0.033 | [12] -0.02 | [13] -0.043 | [14] -0.023 | [15] 0.05 | [16] -0.027 | [17] -0.02 | [18] 0.015 | [19] -0.029 | [20] -0.042

DNAJC3 (UniProt Q13217)
inactive: [1] -0.012 | [2] -0.044 | [3] 0.053 | [4] 0.029 | [5] 0.022 | [6] -0.011 | [7] -0.003 | [8] 0.066 | [9] 0.025 | [10] -0.058 | [11] -0.039 | [12] -0.01 | [13] -0.018 | [14] -0.005 | [15] 0.04 | [16] -0.067 | [17] -0.02 | [18] 0.017 | [19] -0.005 | [20] -0.009

The list goes on.

DPH7 (UniProt Q9BTV6)
inactive: [1] 0.04 | [2] 0.02 | [3] -0.046 | [4] -0.077 | [5] -0.005 | [6] 0.058 | [7] 0.087 | [8] 0.037 | [9] 0.069 | [10] -0.075 | [11] -0.059 | [12] 0.062 | [13] -0.009 | [14] 0.007 | [15] -0.095 | [16] -0.01 | [17] -0.062 | [18] 0.005 | [19] -0.001 | [20] 0

DSC2 (UniProt Q02487)
inactive: [1] 0.033 | [2] 0.075 | [3] -0.033 | [4] -0.115 | [5] 0.005 | [6] 0.016 | [7] 0.117 | [8] -0.052 | [9] 0.052 | [10] 0.029 | [11] -0.03 | [12] 0 | [13] -0.068 | [14] -0.13 | [15] 0.045 | [16] -0.021 | [17] -0.083 | [18] 0.111 | [19] -0.012 | [20] 0.013

DR1 (UniProt Q01658)
inactive: [1] -0.005 | [2] 0.01 | [3] 0.019 | [4] -0.021 | [5] -0.106 | [6] 0.041 | [7] -0.024 | [8] -0.007 | [9] 0.152 | [10] -0.011 | [11] -0.009 | [12] -0.005 | [13] 0.052 | [14] 0.027 | [15] -0.062 | [16] -0.045 | [17] -0.085 | [18] -0.087 | [19] -0.065 | [20] -0.018

DPP7 (UniProt Q9UHL4)
inactive: [1] 0.047 | [2] 0.044 | [3] -0.029 | [4] 0.03 | [5] 0.083 | [6] -0.018 | [7] -0.115 | [8] -0.003 | [9] 0.007 | [10] -0.002 | [11] -0.031 | [12] 0.015 | [13] 0.029 | [14] 0.015 | [15] -0.023 | [16] -0.014 | [17] -0.025 | [18] -0.019 | [19] 0.006 | [20] 0.035

ECHS1 (UniProt P30084)
inactive: [1] 0.014 | [2] -0.027 | [3] 0.013 | [4] -0.003 | [5] 0.005 | [6] 0.06 | [7] -0.015 | [8] -0.045 | [9] -0.067 | [10] 0.034 | [11] -0.016 | [12] -0.018 | [13] 0.01 | [14] 0.053 | [15] -0.073 | [16] 0.089 | [17] 0.077 | [18] 0.024 | [19] -0.027 | [20] -0.002

DSG2 (UniProt Q14126)
inactive: [1] 0.037 | [2] 0.044 | [3] -0.045 | [4] 0.029 | [5] -0.004 | [6] 0.032 | [7] 0.01 | [8] 0.003 | [9] 0.026 | [10] -0.07 | [11] -0.01 | [12] 0 | [13] -0.012 | [14] 0 | [15] -0.027 | [16] -0.016 | [17] -0.049 | [18] 0.012 | [19] -0.018 | [20] 0.005
